Laboratory results reported in PubChem BioAssay AID504648 (National Center for Advancing Translational Sciences (NCATS), 2011).
Hit rate of the full screen: of about 390,000 compounds, about 610 (0.16%) were called active. This list was built around the results that the source calls inconclusive (neither active nor inactive); the mix of calls is not that of the screen. The call rests on the fitted dose curve; in most records, active means well fitted inhibition curve with a large enough effect; inconclusive means small, poorly fitted or top-dose-only effect, or effect the other way, or another doubt; inactive means no such curve, though single readings can be large or run the other way. Where the call is inconclusive, the potency comes from a doubtful curve fit.

experiment: Nrf2 qHTS screen for inhibitors: counterscreen for cytotoxicity; settings: A549 ARE-Fluc cells, CellTiter-Fluor viability, 18-24 h; activity change, negative = cytotoxicity: at 46 µM (top of the series)
Procedure, shortened: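 A549 ARE-Fluc cells in 5% FBS OPTI-MEM, 5000 cells/well, rested 2 h then exposed to compounds in concentration-response for 18-24 h at 37 °C. Viability by CellTiter-Fluor fluorescence (Ex 405/Em 525) after 30 min; luciferase luminescence (BugLite, 15 min, RT) read afterwards.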
On the % scale 0 is the no-effect control and ±100 the full control effect; potency means the concentration at half of the fitted maximal effect.

SMILES | Potency | activity change, negative = cytotoxicity
O=C(NNC1=C(C(=O)C(F)(F)F)CCC1)c1ccc(Cl)cc1 | inconclusive: 23.1 µM [falling, single point] | –
COc1ccc(C2CC(=O)c3cnc(Nc4cc(C)cc(C)c4)nc3C2)cc1 (stereo not given) | inconclusive: 25.9 µM [falling, single point] | –
Cc1cc2c(cc1S(=O)(=O)N1CCc3ccccc31)NC(=O)CO2 | inconclusive: 29.1 µM [falling, single point] | –
CC(=O)c1ccc(S(=O)(=O)Nc2ccc(C(=O)NCC(c3ccccc3)N(C)C)cc2)cc1 (stereo not given) | inconclusive: 2.06 µM [activator, full curve, poor fit] | –
Cc1ccc(-c2nc3ccccc3[nH]2)cc1NC(=S)NC(=O)c1ccccc1Br | inconclusive: 29.1 µM [falling, single point] | –
CCN(CC)CCNc1nc(-c2ccccc2)nnc1C(F)(F)F | inconclusive: 14.6 µM [activator, single point] | –
Cc1cc([N+](=O)[O-])ccc1NC(=O)Nc1ccc(F)cc1F | inconclusive: 29.1 µM [falling, single point] | –
Cc1ccc2nc(-c3ccc(NC(=O)Cc4cccs4)cc3)[nH]c2c1 | inconclusive: 18.4 µM [falling, single point] | –
O=C(N/N=C/c1cccs1)c1cncc(Br)c1 | inactive | –
CCOc1ccc(C(=O)Nc2cccc(-c3cc4ccccc4oc3=O)c2)cc1[N+](=O)[O-] | inconclusive: 13 µM [falling, partial curve, poor fit] | –
COc1cccc(-n2cc(C(=O)NCCc3cccc(C)c3)c3ccccc3c2=O)c1 | inactive | –
Cc1ccc(C(=O)NCC(=O)NCC(=O)OCC(=O)c2ccc(Br)cc2)cc1 | inactive | –
CC(C)(C)NC(=O)Cn1c(SCC(=O)N2CCCCCC2)nc2ccccc21 | inconclusive: 32.6 µM [falling, partial curve, poor fit] | –
Cc1ccc(S(=O)(=O)N2C[C@@H]3CCCC[C@@H]3[C@@H](C)[C@H]2c2cn(Cc3ccccc3)c3ncccc23)cc1 | inactive | –
CCc1nn(CC(=O)NCCCN(CC)Cc2ccccc2)c(=O)c2cc3sccc3n12 | inconclusive: 13 µM [activator, partial curve, poor fit] | –
COCCOC(=O)C(C#N)c1nc2ccccc2nc1N1CCCC1 (stereo not given) | inconclusive: 23.1 µM [falling, partial curve, poor fit] | –
Cc1ccc(CCNC(=O)C2CCN(S(=O)(=O)c3ccc4c(c3)NC(=O)C(C)S4)CC2)cc1 (stereo not given) | inactive | –
COCC(=O)Nc1nc2n(n1)C(c1ccccc1Cl)CC(c1ccc(OC)cc1)N2 (stereo not given) | inactive | –
Cc1cccc(Nc2ncnc3c2cnn3C)c1C | – | inconclusive: -53.2% [activator]
Cc1cc(C(=O)N/N=C/c2ccc[nH]2)no1 | inconclusive: 16.4 µM [falling, partial curve, poor fit] | –
COC(=O)c1ccccc1NC(=S)N(Cc1ccc2c(c1)OCO2)Cc1cc2ccc(OC)cc2[nH]c1=O | inactive | –
Cc1cccc(C)c1NC(=O)CSCC(=O)c1ccc(O)c(O)c1 | inconclusive: 16.4 µM [falling, partial curve, poor fit] | –

SMILES | Potency | activity change, negative = cytotoxicity
NNC(=O)c1cc(Br)cs1 | inconclusive: 23.1 µM [falling, single point] | –
COc1ccccc1NC(=S)N(Cc1ccco1)Cc1cc2cc(C)c(C)cc2[nH]c1=O | inconclusive: 8.2 µM [falling, partial curve] | –
Cc1ccc(N=C2SC(C(=O)Nc3ccc(OC(F)(F)F)cc3)C(N)=C2C(=O)Nc2c(C)cc(C)cc2C)cc1 (stereo not given) | inconclusive: 29.1 µM [falling, single point] | –
COc1ccc(Cn2c(C(=O)O)c(CNC3CCC(C)CC3)c3ccc(C)cc32)cc1 (stereo not given) | inconclusive: 8.2 µM [falling, partial curve, poor fit] | –
COc1cccc(C(=O)Nc2ccc3nc(SCc4ccc(C)cc4)sc3c2)c1 | inactive | –
N#C/C(=C/c1cc(Cl)c(O)c(Cl)c1)C(=O)N1CCCCC1 | inconclusive: 18.4 µM [falling, single point] | –
Cc1cc([N+](=O)[O-])ccc1NS(=O)(=O)c1ccccc1 | inconclusive: 18.4 µM [falling, single point] | –
CC1(C)CCSC(/C=C/c2ccccc2)=N1 | inconclusive: 32.6 µM [falling, single point] | –
CCOC(=O)c1cnc2c(C)cccc2c1NCCc1ccc(OC)c(OC)c1 | inactive | –
Cc1ccc(C)c(CN2C(=O)c3ccccc3S(=O)(=O)c3ccc(C(=O)N4CCCC4)cc32)c1 | inconclusive: 29.1 µM [falling, single point] | –
CC(C)CN(C(=O)C(C)N1C(=O)c2ccccc2C1=O)c1c(N)n(Cc2ccccc2)c(=O)[nH]c1=O (stereo not given) | inactive | –
FC(F)(F)c1cc(-c2ccco2)nc(NCCc2ccccc2)n1 | inconclusive: 6.51 µM [falling, single point] | –
CNC(=O)C1CCN(Cc2cc3ccccc3n2Cc2ccccc2C)CC1 | inactive | –
COc1ccc(-c2oc3ncnc(NCCCN4CCOCC4)c3c2-c2ccc(OC)cc2)cc1 | inconclusive: 10.3 µM [falling, single point] | –
COC(=O)c1cc(Cl)c(NC(=O)/C=C/c2ccc(OC)c(OC)c2)cc1OC | inactive | –
O=C(NN1C(=O)c2ccccc2NC1c1ccc([N+](=O)[O-])o1)c1ccc([N+](=O)[O-])cc1 (stereo not given) | inconclusive: 29.1 µM [falling, partial curve, poor fit] | –
COc1ccccc1N1CCN(C(=O)c2cnn(-c3ccc(C)c(C)c3)c2C2CCN(C(=O)OC(C)(C)C)CC2)CC1 | inconclusive: 29.1 µM [falling, single point] | –
CCOc1ccc(N=C(NN)c2ccc3ccccc3n2)cc1 | inconclusive: 29.1 µM [falling, single point] | –
COc1ccccc1CNC(=O)Nc1cccs1 | inactive | –
C=CC[n+]1c(/C=C/c2ccc(OC(C)=O)c(OC)c2)ccc2ccccc21 | inconclusive: 29.1 µM [falling, single point] | –
O=C(c1ccco1)N1CCN(c2c(-c3ccccc3)c3cc(Cl)ccc3[nH]c2=O)CC1 | inconclusive: 29.1 µM [falling, single point] | –
C=CCn1c(Oc2ccc(C=O)cc2OCC)nc2c1c(=O)n(C)c(=O)n2C | inactive | –

Look-ups from the list:
COC(=O)c1cc(Cl)c(NC(=O)/C=C/c2ccc(OC)c(OC)c2)cc1OC | Potency: inactive
N#C/C(=C/c1cc(Cl)c(O)c(Cl)c1)C(=O)N1CCCCC1 | Potency: inconclusive: 18.4 µM [falling, single point]
Cc1ccc(N=C2SC(C(=O)Nc3ccc(OC(F)(F)F)cc3)C(N)=C2C(=O)Nc2c(C)cc(C)cc2C)cc1 (stereo not given) | Potency: inconclusive: 29.1 µM [falling, single point]

Additional compounds:

SMILES | Potency | activity change, negative = cytotoxicity
CN=c1scc(-c2ccccc2F)n1/N=C/c1ccc(O)c(O)c1O | inconclusive: 29.1 µM [falling, single point] | –
CCOC(=O)c1c(C)oc2ncnc(NCCCN3CCN(c4cc(C)ccc4C)CC3)c12 | inconclusive: 29.1 µM [falling, single point] | –
C/C(=N\NC(=S)NCCc1ccccc1)c1cccs1 | inconclusive: 23.1 µM [activator, partial curve, poor fit] | –
O=C(/C=C/c1ccco1)NC(=S)Nc1cccc(-c2nc3ccccc3o2)c1 | inconclusive: 13 µM [falling, partial curve] | –
COC(=O)C1=C(C)OC(N)=C(C#N)C1c1cc(OC)c(OCC(N)=O)cc1Cl (stereo not given) | inconclusive: 1.3 µM [falling, partial curve, poor fit] | –
O=C(C[C@H]1C[C@H](C(=O)N2CCOCC2)[C@@]2(CCC3CCCC3)c3[nH]c4cc(-c5ccco5)ccc4c3CCN2C1=O)NCCCn1ccnc1 | inconclusive: 29.1 µM [falling, single point] | –
NNC(=O)c1cc(-c2cccs2)nc2ccccc12 | inactive | –
CCOc1cc2sc(N3CCC(C(=O)Nc4ccccc4Cl)CC3)nc2cc1Br | inactive | –
O=C(CN(Cc1ccccc1F)S(=O)(=O)c1ccc(Cl)cc1)NCCC1=CCCCC1 | inconclusive: 32.6 µM [falling, partial curve, poor fit] | –
CN(Cc1ccccc1)C(=O)c1ccc(S(=O)(=O)N(C)c2ccccc2)cc1 | inconclusive: 25.9 µM [activator, partial curve, poor fit] | –
Cc1ccc2c(n1)sc1c(-c3ccc(Br)cc3)c(C#N)c(N)nc12 | inconclusive: 18.4 µM [falling, single point] | –
Nc1cc2sc(-c3ccc(C(=O)O)cc3)nc2cc1Cl | inconclusive: 18.4 µM [activator, single point] | –
CNC(=O)/C(C#N)=C/c1cn(CC(=O)NCc2ccco2)c2ccccc12 | inconclusive: 23.1 µM [falling, partial curve, poor fit] | –
CCCCCCCCCCOC(=O)Cn1c(COc2cccc(C)c2)[n+](C)c2ccccc21 | inactive | –
CCCCCNC(=O)CN(c1ccc2c(c1)OCO2)S(C)(=O)=O | inconclusive: 8.2 µM [activator, partial curve, poor fit] | –
CN1CCN(C(=O)c2ccc3c(c2)N(Cc2c(F)cccc2Cl)C(=O)c2ccccc2S3)CC1 | inactive | –
Cc1ccccc1N1C(=O)C(Oc2ccc(Cl)cc2)C1CNCCCOC(C)C (stereo not given) | inconclusive: 29.1 µM [falling, partial curve, poor fit] | –
CC(C)(C)c1ccc(C(=O)NCC(c2cccs2)S(=O)(=O)c2ccc(F)cc2)cc1 (stereo not given) | inconclusive: 32.6 µM [falling, partial curve, poor fit] | –
FC(F)(F)c1nc(-c2cccs2)ncc1-c1nnnn1-c1ccc(Cl)cc1 | inconclusive: 29.1 µM [falling, single point] | –
COc1ccc(NC(=O)C2CCN(c3cc(C)nc(-c4ccccc4)n3)CC2)cc1 | inactive | –
COc1ccc(OC)c(-n2c(SCC(=O)NCC3CCCO3)nc3ccccc3c2=O)c1 (stereo not given) | inactive | –
